Measurements reported in PubChem BioAssay (NCATS).
Inconclusive results, whose numbers are uncertain, are shown with a selection of clear calls. A potency beside an inconclusive call is a rough fit, not a confirmed value. The source made the active and inactive calls. The call rests on the fitted dose curve; in most records, active means well fitted cell-killing curve with a large enough effect; inconclusive means small, poorly fitted or top-dose-only effect, or effect the other way; inactive means no such curve, though single readings can be large or run the other way.

Tests used:
[1] = Quantitative High-Throughput drug screen in 47 multiple myeloma cell lines against the NCATS MIPE library collection: EJM_DSMZ cell viability assay (AID 1918926; further: nearly all actives have a fitted effect of over 30% in size); settings: EJM myeloma cell viability, CellTiter-Glo ATP, 48 h; series mostly up to 45.8 µM
Method in brief: (§1)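 Viability readout: CellTiter-Glo luminescence following 5 min room-temperature incubation with reagent. Prior exposure: 48 h, 37C, humidified 5% CO2, 500 cells per well.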

[2] = Quantitative High-Throughput drug screen in 47 multiple myeloma cell lines against the NCATS MIPE library collection: AMO1_DSMZ cell viability assay (AID 1918927; further: nearly all actives have a fitted effect of over 30% in size)
Method in brief: as §1

[3] = Quantitative High-Throughput drug screen in 47 multiple myeloma cell lines against the NCATS MIPE library collection: ARP1_JJKsccF8 cell viability assay (AID 1918928; further: nearly all actives have a fitted effect of over 40% in size); settings: ARP1 myeloma cells viability, CellTiter-Glo ATP, 48 h; viability: at 45.8 µM (top of the series)
Method in brief: (§2)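 Luminescence from CellTiter-Glo, taken after 5 min at room temperature, reports cellular ATP as viability. Cells (500 per well) had been treated 48 h at 37 °C with MIPE 4.0 compounds, scaled between DMSO and medium-only controls.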

[4] = Quantitative High-Throughput drug screen in 47 multiple myeloma cell lines against the NCATS MIPE library collection: ARD_JJKsccE7 cell viability assay (AID 1918929)
Method in brief: as §1

[5] = Quantitative High-Throughput drug screen in 47 multiple myeloma cell lines against the NCATS MIPE library collection: KMM1_JCRB cell viability assay (AID 1918960); settings: KMM1 myeloma viability, CellTiter-Glo ATP luminescence, 48 h; viability (% of DMSO): at 45.8 µM (top of the series); further: nearly all actives have a fitted effect of over 30% in size
Method in brief: as §2

[6] = Quantitative High-Throughput drug screen in 47 multiple myeloma cell lines against the NCATS MIPE library collection: KHM11_PLB cell viability assay (AID 1918962); settings: KHM11 myeloma cell viability, CellTiter-Glo ATP luminescence, 48 h; series mostly up to 45.8 µM; further: nearly all actives have a fitted effect of over 35% in size
Method in brief: (§3)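 CellTiter-Glo luminescence (ATP) after 48 h compound exposure, 37C/5% CO2; 500 cells/well; MIPE 4.0 approved/investigational drugs pinned in; DMSO = 100%, media only = 0% viability.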

[7] = Quantitative High-Throughput drug screen in 47 multiple myeloma cell lines against the NCATS MIPE library collection: Delta47_JCRB cell viability assay (AID 1918925; further: nearly all actives have a fitted effect of over 45% in size); settings: Delta47 myeloma viability, CellTiter-Glo ATP, 48 h; viability (% of DMSO): at 45.8 µM (top of the series) unless noted
Method in brief: as §1

[8] = Quantitative High-Throughput drug screen in 47 multiple myeloma cell lines against the NCATS MIPE library collection: Karpas620_DSMZ cell viability assay (AID 1918959); further: nearly all actives have a fitted effect of over 30% in size
Method in brief: as §3

[9] = Quantitative High-Throughput drug screen in 47 multiple myeloma cell lines against the NCATS MIPE library collection: Karpas417_ECACC cell viability assay (AID 1918961); settings: Karpas417 myeloma viability, CellTiter-Glo ATP luminescence, 48 h; viability (% of DMSO): at 45.8 µM (top of the series) unless noted
Method in brief: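 Myeloma cells (500 per well) were exposed to MIPE 4.0 compounds by pin transfer and incubated 48 hours at 37C, 5% CO2. Viability was read as ATP by CellTiter-Glo luminescence, normalised to DMSO (100%) and media-only (0%) wells.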
Potency means the concentration at half of the fitted maximal effect.

Structure (SMILES) | Potency [1] | Potency [2] | Potency [3] | Potency [4] | Potency [5] | Potency [6] | Potency [7] | Potency [8] | Potency [9]
O=P(O)(O)C(O)(Cn1ccnc1)P(=O)(O)O | inactive | inconclusive: 0.0046 µM [rising, full curve, poor fit] | inactive | inconclusive: 0.0005 µM [cytotoxic, full curve, poor fit] | inactive | inactive | – | – | –
N#Cc1cc(NC(=O)Nc2nnc(-c3ccncc3)s2)ccc1-c1cn[nH]c1 | – | – | inconclusive: 8.33 µM [cytotoxic, full curve, poor fit] | – | – | inactive | inactive | inactive | inactive
N#CC(=Cc1ccc(O)c(O)c1)C(=O)NCc1ccccc1 | – | – | inconclusive: 18.7 µM [cytotoxic, partial curve, poor fit] | inconclusive: 6.62 µM [cytotoxic, partial curve, poor fit] | – | – | active: 1.66 µM | inactive | inconclusive: 37.2 µM [rising, partial curve, poor fit]
COc1ccc2nc3cc(Cl)ccc3c(Nc3cc(CN4CCCC4)c(O)c(CN4CCCC4)c3)c2n1 | inconclusive: 26.4 µM [cytotoxic, single point] | inconclusive: 29.6 µM [cytotoxic, single point] | active: 29.6 µM | inconclusive: 37.2 µM [cytotoxic, single point] | – | – | – | inconclusive: 33.2 µM [cytotoxic, single point] | inconclusive: 0.0026 µM [cytotoxic, full curve, poor fit]
C[C@H]1C[C@@H]2[C@@H]([C@@H](O)C[C@@]3(C)[C@H]2CC[C@]3(O)C(=O)CO)[C@@]2(C)C=CC(=O)C=C12 | – | – | inconclusive: 0.118 µM [cytotoxic, full curve] | inconclusive: 0.0187 µM [cytotoxic, full curve] | inconclusive: 20.9 µM [cytotoxic, partial curve, poor fit] | inactive | inactive | – | active: 0.132 µM
NC[C@H]1O[C@H](O[C@@H]2[C@@H](O)[C@@H](O[C@H]3O[C@H](CO)[C@@H](O)[C@H](N)[C@@H]3O)[C@H](N)C[C@@H]2N)[C@H](O)[C@@H](O)[C@H]1O | – | – | inconclusive: 5.26 µM [cytotoxic, partial curve, poor fit] | – | inactive | inactive | inconclusive: 0.0118 µM [cytotoxic, full curve, poor fit] | – | inconclusive: 10.5 µM [rising, partial curve, poor fit]
CN[C@@H]1[C@@H](O)[C@@H](O[C@@H]2[C@@H](O)[C@H](O[C@H]3O[C@H](CN)[C@@H](O)[C@H](O)[C@@H]3O)[C@@H](N)C[C@@H]2NC(=O)[C@@H](O)CN)OC[C@]1(C)O | – | – | inconclusive: 2.96 µM [cytotoxic, partial curve, poor fit] | – | inactive | inconclusive: 7.43 µM [cytotoxic, partial curve, poor fit] | inconclusive: 29.6 µM [cytotoxic, single point] | – | inactive
CCNc1cc(NC2CCC(O)CC2)nc(Nc2ccc3c(ccn3Cc3ccccc3)c2)n1 (centres undefined) | active: 18.7 µM | inconclusive: 16.6 µM [cytotoxic, partial curve] | inconclusive: 33.2 µM [cytotoxic, partial curve, poor fit] | inconclusive: 83.3 µM [cytotoxic, partial curve, poor fit] | inconclusive: 7.43 µM [cytotoxic, partial curve] | inconclusive: 37.2 µM [cytotoxic, single point] | – | inconclusive: 14.8 µM [cytotoxic, partial curve] | –
O=C1CCCC(=O)C1C(=O)c1ccc(C(F)(F)F)cc1[N+](=O)[O-] | – | – | inactive | – | inconclusive: 0.001 µM | inactive | inconclusive: 0.526 µM [cytotoxic, full curve, poor fit] | – | inactive
CCNC(=O)c1cc2c(-c3cc(OCCN4CCCC4)c(Cl)cc3Cl)nc(N)nc2s1 | – | active: 0.935 µM | – | – | – | active: 0.59 µM | active: 1.05 µM | – | active: 0.59 µM
COc1ccc2c(c1)CC[C@H]1[C@@H]2CC[C@]2(C)[C@@H](NCCCCCCN3C(=O)C=CC3=O)CC[C@H]12 | – | – | inactive | – | – | inconclusive: 3.32 µM [cytotoxic, full curve, poor fit] | inactive | inactive | inconclusive: 20.9 µM [rising, partial curve, poor fit]
COc1ccc2c(Oc3ccc(NC(=O)c4c(C)n(CC(C)(C)O)n(-c5ccccc5)c4=O)cc3F)ccnc2c1 | inconclusive: 33.2 µM [cytotoxic, single point] | inconclusive: 29.6 µM [cytotoxic, single point] | inconclusive: 16.6 µM [cytotoxic, partial curve, poor fit] | – | inconclusive: 18.7 µM [cytotoxic, partial curve] | inconclusive: 8.33 µM [cytotoxic, partial curve, poor fit] | – | – | inactive
CC(CCc1ccc(O)cc1)NCCc1ccc(O)c(O)c1 (centres undefined) | – | – | – | – | – | inconclusive: 26.4 µM [cytotoxic, single point] | inconclusive: 11.8 µM [cytotoxic, partial curve, poor fit] | – | inconclusive: 29.6 µM [cytotoxic, partial curve, poor fit]
CC(C)(Cc1ccc2ccccc2c1)NC[C@@H](O)COc1cccc(Cl)c1C#N | – | – | inactive | inactive | – | inconclusive: 2.35 µM [cytotoxic, full curve, poor fit] | inconclusive: 18.7 µM [cytotoxic, partial curve, poor fit] | – | inconclusive: 23.5 µM [rising, partial curve, poor fit]
CN(CCOc1ccc(NS(C)(=O)=O)cc1)CCc1ccc(NS(C)(=O)=O)cc1 | inactive | inactive | inactive | – | inactive | inconclusive: 0.0372 µM [rising, full curve, poor fit] | – | – | inactive

Random excerpt: 2 records from the list, in no set order.
Structure (SMILES) | Potency [1] | Potency [2] | Potency [3] | Potency [4] | Potency [5] | Potency [6] | Potency [7] | Potency [8] | Potency [9]
CC(CCc1ccc(O)cc1)NCCc1ccc(O)c(O)c1 (centres undefined) | – | – | – | – | – | inconclusive: 26.4 µM [cytotoxic, single point] | inconclusive: 11.8 µM [cytotoxic, partial curve, poor fit] | – | inconclusive: 29.6 µM [cytotoxic, partial curve, poor fit]
N#CC(=Cc1ccc(O)c(O)c1)C(=O)NCc1ccccc1 | – | – | inconclusive: 18.7 µM [cytotoxic, partial curve, poor fit] | inconclusive: 6.62 µM [cytotoxic, partial curve, poor fit] | – | – | active: 1.66 µM | inactive | inconclusive: 37.2 µM [rising, partial curve, poor fit]
